Results from cells or extracts need not show a direct contact. For some assays here: Tags and fusion partners may be left off the protein sequences shown. For some assays here: The exact form of at least one protein or probe is not confirmed. For some assays here: No signal at the amounts used counts as a negative.
Experiments:
[1] = system: Ets family factors (NIH3T3 nuclear extract) (mouse); test: EMSA; settings: protein in an extract; label: 32P
[2] = target: T1, GABPα (mouse) (UniProt Q00422); test: EMSA; settings: supershift with antibody; protein in an extract; protein details: endogenous in NIH3T3 nuclear extract; label: 32P
T1 sequence (looked up, limits assumed): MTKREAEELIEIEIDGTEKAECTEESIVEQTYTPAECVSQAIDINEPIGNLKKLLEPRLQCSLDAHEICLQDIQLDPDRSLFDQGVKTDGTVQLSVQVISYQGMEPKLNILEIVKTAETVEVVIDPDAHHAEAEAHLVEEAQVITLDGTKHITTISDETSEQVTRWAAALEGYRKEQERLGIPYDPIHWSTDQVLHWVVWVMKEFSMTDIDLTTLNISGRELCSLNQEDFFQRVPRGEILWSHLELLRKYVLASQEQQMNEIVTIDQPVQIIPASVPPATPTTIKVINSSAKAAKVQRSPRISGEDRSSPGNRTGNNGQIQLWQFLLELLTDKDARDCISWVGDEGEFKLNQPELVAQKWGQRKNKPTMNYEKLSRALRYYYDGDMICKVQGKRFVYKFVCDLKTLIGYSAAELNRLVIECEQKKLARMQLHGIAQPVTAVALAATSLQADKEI

[3] = target: T2, Fli-1 (mouse) (UniProt P26323); test: EMSA; settings: antibody gave interference effect; protein in an extract; protein details: endogenous in NIH3T3 nuclear extract; label: 32P
T2 sequence (looked up, limits assumed): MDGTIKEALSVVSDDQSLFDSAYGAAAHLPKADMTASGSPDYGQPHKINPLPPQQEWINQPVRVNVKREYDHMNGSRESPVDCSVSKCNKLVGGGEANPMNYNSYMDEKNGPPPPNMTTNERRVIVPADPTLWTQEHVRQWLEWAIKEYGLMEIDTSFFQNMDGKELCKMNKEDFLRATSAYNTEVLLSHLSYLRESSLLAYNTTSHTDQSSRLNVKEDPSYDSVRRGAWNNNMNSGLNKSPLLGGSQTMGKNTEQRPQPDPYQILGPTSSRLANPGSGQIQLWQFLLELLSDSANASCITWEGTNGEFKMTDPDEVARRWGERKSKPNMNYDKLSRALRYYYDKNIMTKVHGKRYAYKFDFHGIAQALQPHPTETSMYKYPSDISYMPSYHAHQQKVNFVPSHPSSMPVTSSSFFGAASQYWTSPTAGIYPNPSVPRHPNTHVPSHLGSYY

[4] = target: T3, Tel (ETV6) (mouse) (UniProt P97360); test: EMSA; settings: supershift with antibody; protein in an extract; protein details: endogenous in NIH3T3 nuclear extract; label: 32P
T3 sequence (looked up, limits assumed): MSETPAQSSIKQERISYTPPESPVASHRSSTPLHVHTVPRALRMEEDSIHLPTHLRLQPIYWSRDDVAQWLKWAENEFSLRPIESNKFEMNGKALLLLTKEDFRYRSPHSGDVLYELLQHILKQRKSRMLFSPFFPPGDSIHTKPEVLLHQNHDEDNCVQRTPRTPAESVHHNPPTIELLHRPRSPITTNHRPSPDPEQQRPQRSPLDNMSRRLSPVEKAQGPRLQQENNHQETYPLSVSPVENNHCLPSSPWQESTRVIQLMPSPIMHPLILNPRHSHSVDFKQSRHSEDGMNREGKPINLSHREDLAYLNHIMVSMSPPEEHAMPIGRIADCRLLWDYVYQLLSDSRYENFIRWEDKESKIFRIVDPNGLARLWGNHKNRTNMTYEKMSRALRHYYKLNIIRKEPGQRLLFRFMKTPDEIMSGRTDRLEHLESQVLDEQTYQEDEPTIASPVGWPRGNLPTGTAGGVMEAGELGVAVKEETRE

[5] = system: Ets family factors (NIH3T3 nuclear extract) (mouse); test: competition with a labelled probe; settings: single-nucleotide mutant does not compete; protein in an extract; variant of EBS WT (-85 to -70)

“GCGCCGCCGGAAGTGA (double strand) [EBS WT (-85 to -70)]”: binds [1]; binds [2]; binds [3]. “GCGCCGCCGGAAGTGA (double strand) [EBS WT (-85 to -70)]”: binds [4].
“GCGCCGCCGTAAGTGA (double strand) [EBS MT (-85 to -70)]”: no binding [5].

Reference: patent publication US20080070298, “Promoter of Synoviolin Gene” (published 2008)
